Data from paper doi:10.1101/2021.10.09.462405.
Positions count from the first letter of the chain named. Names and notes keep the numbering of the source. Results are given in words; binding and its absence hold for the method and conditions named. Binding seen in cells or lysates may run through a third protein. Some entries that bind do so weakly or less than the wild type. Tags and fused reporters may be left off the sequences shown.

B1: Abi^WT (protein, UniProt Q55FT9 1-332)
chain: MSESIDINVYSQTTIPNAMAELMDNHNKMEQISAYCKSLYANGDAAQAYEQTQGYAKNALLNVAYHIQTVGTHITSLLQLQTNEMEKLNIEIQTLTQRVRMIHDSTGTNVFSNQDAAKPYKSSLKNRKVDTEATKAPVKYVHKPISYGISASDINQNGVPPPLNHSNSSANLTSSSGHLAASSTSNSSTPSYQSPSYSSQPTISSGTPPPIQKQPPRVGNAPPPPSLSVPAAPPPPVMNVPPPPPTSQRPSSVNNNAPSNDFPPPPPPSSSSSGGDLPPPPSFGLPPPPTLGDDFPPPPPPPVGSYDFPPPPARPQSQFYDHNDFPPPPPPM
B2: Abi^S3A (S166/168/169A) (protein, UniProt Q55FT9 1-332)
chain: B1 chain with S166A, S168A, S169A
B3: Abi^S3D (S166/168/169D) (protein, UniProt Q55FT9 1-332)
chain: B1 chain with S166D, S168D, S169D
B4: Scar (protein, UniProt Q54NF8 1-443)
chain: MVLITRYLPSVTDNNQPALEGQSKDQIVDTVITSTTVGIINQLTMLVAHSNSIFTALANDANLVTQRIEKLGSRIRPLIQSIPSIEDYHRNTSIDTMNSKPRAEFHADNSERNQHFTHASIPASINTVYEKCKPPPNLQLLDPYMDDGQKSLKLYTNPDFFMDEWVAEQQKLHEEARQRKRERREARLKKKGEKNEVEVKKVKSVTKVRYDPVTGEKITINIESPHTSSPQIQHQSNNTATPQHTTQHFGTNQYQAPPPPPLSQSSPSQQHSPINSYTPPPPPLNTSTPSPSSSFQGRPPSTGFNTPPPPMSNNNNMPPPPPMQQNGGAANNRLSVHNSAPIVAAPAPPPPPPPPSAPAPPPPPMAKAGGGASDIKPKASGARSDLLSSIMQGMALKPAEERKVAEAPKKEEALNVADILARRIAWAGDSDSSEDESDDSDWD
B5: Pir121 (protein, UniProt Q6UK63 1-1336)
chain: MSVDPKQSKIADVFERCDVLESFPFHDDQSEIEEQSPSIGYDAYDKSLNYTDRGAYETQWSEETIGMEKMEEVLKQGDSFINMVYTYRSCSKALPTVKTAEQVNKTQIYEGNFEVLEPEIKKLKDFMYFQKDTIKLFCDHIKKLASTYDKKKETISASESFINYLVRILDLLAILDALKNMKACLNNDFSFFKRATGFLRKQMSGTEDQTQENHTLYLFLANQNSITSSLKLELHNIDKFDDILPMIVNQCADYLEQEKYILPSEKHCLLRVMPFVLFLIDENDSKHNINKNKNLNISRYAKIFKKNPVVPLYGDMQITLESLVKRSPHFDEKAWGTSTLDSKSALDYEIIHVLDQTRSLYNEYMARFANMVNEIRAAKARGPKEPLPLAESDIQAITLMGLRILSDWTSRVLQQSAWKYSKPNNDPTISATFDYERVVKFNYTKEERTALVQLIAMIKSLASLMMKSETLLQPILRKTIHQELQEFVQINLKETIKSFVKNNPKKKDNIKLEMSQLKNISVDWFSGFEPAEAVPNKKSKEVEEKVQIPARAVPPSPTQLELILTLVSSLMDKKKDFSSDQYRDFEAFSSKAFFYRYLLSLSSSIISITDLADLWYREFYLELNNRVQFPIETSLPWILTDHILESDDPSLIEHLFYPLGLYNDTAQRALLSLNQRFLYDEIEAELNLCFDQLLYKLSGKVYTHFKTQASSILLDKPYKTQLELAHFNGKLHTPKSRFDVLLRQKHITLLGRSIDLCGLLAQRQNNTIRQNLDYAISRFEACDLTSIVELETQIANIKLTHKLLSEYFDIDPFESIFNEINESTSLVSYHGRIVLHIIFELVADFAPNYTFNSITQRFIKAPYTFTEELKRDALPKTNPVFLFGNKYLNAAYANSIELYKNFIGVPHIQSILRIVGKKNLPLIVAEVLRNIEIKITNVLSPYVSELLQGMPASTKLPIYDYGTEGGYGYFQLKLKDIYIYPDLRPEVLQTFRELGNSLVFMNLLDQVITQTDSYNFAKAAPFLGITPETWKDLEPSTEDPTLQSPLYSQLQKLAQLLESRPEVAKSSQSLNDMVANAWRADKFYRPSEQNFSLFKSVLQRFSSILNIVRHDWSGAPPDNGVICVDSSTEFYRLWSALQFVICWPLSNENDKSFHELFGDGLMWAGCSLIHFLGQQYRFELFDFCYHILNVEEAAAVRSDKPALKNFFKNAQIIKDINNQIFSILNTYCPPPPPSNMILSPPATEQAEQFIVTTTVEEQSIQQQQQQQQQQQLQQSTSNSGSSLSLSAAGAPPPPPPPSTNGLPPPPPMAEYEMSSSIDDFAPPPPPPFGMPPPPPM
B6: Nap1 (protein, UniProt Q869Q3 1-1160)
chain: MAHTNLPEKFQVVIENGENILQRVYNTYKLFQNNKVKPSFFNDEKISKILKNLIAKYPELPENNDKSITGFDLLTSRAKQHLEELEDHYYTITDAYDWKEASFILMQEISSNTVSINFNNNIQLCSKFLDVLVLYGKINYLVSLIPDKKIITAVYAKLFLYTRSASEPTFSKMGRWINDIEQPFKKIQEEFRVLNDAVGHALSSFELTYAKRRVITQLRKDGALNLILKPEDIARPVQDSYRIELAYAGRIQQWILFGYLFAPGTLSTPQSIELLRFTLSECFYLSVFKDISISIHNEFNTLFKNYKSKTINLQKQKKIIKDAAQASTQEAPRKHAERRVYIRQELEAMWNLFRDKPCLLAPKINVLLAALSMAKEEIFWYFRHTDVIPPEKVKKFYNKQNEVREKRISSLLSLVDHLVQLVHTHKKMIQNYYLEYISGADILGLQKVITPQLLQNAGSIVTQAVNTIVNELKSLNANGQDYSFEGFRANWMRLGYLLQSNSCPLKESESKQITSRLNLIYTHSKNVDCLDQLLDEYGNMTQLWSYKEPLFHSFDAAIVDMTCDQPSHSMIYLKLLSQFPNHVANQFYPEEKELIGKECVELANSCLTKITNRIVSIMANTIASTFLSDEQQLADVNAAFPLLQKKKDWKPPKDFVPPIEPASESQFRNRANLEQLRSEEKNAFQLCTALNEFLDITIYDHIFVPREFLREKLGSALKQYMRQSIQPPAPTSSSSQIDINITRLSTYESQLRVFIGVLILVENHVDIDIGDLIRETILTEFYAKALGKSGRVDWFPEGEIEMNELTLHSITSYYVDLVSKKLNTPGVVFSPVKLGFISKAGTPFRAEEHADLTEMRALCDLVGPYGIKVIEREILRFILTTTTSMKEILSLNAANLEEFASNYYKPKAMELLKKFKTTDLDLIVTKSIAIGNALHLRSMIRESMKDVITDNFPYINNAVANAFDQYNRNTFMFPDFLGVDTLALDSGLNVGIADQYLKVILRKVSSEADKRIWELLPVMFSLTFYGNIWKETQYKATIDAHSNNVHVLSKTIIDLLIAFGAINSTTGNEAELFQSFKRFLEISSVNILRMFKGKQGEKFVPNEIQSVIIFLDKFTQQCPLLSKDSLEQYIPYSLIRNMYKDLYEHKNLQKQQSETSEQNF

What follows are binders tested against T1, HSPC300-eGFP (Dictyostelium discoideum) (UniProt Q54X65) (assay: co-IP).
T1 sequence: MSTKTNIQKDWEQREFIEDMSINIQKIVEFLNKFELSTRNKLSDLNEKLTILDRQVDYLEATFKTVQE

Binder	binding
B1	binds
B2	binds
B3	binds
B4	binds
B5	binds
B6	binds
